Measurements reported in PubChem BioAssay AID1259308 (NCATS, 2017)

Test: 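Candidate targets for better recombinant protein yield in mammalian cells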 (primary screen)
Cell system: human HEK293 embryonic kidney cells stably expressing firefly luciferase (HEK-CMV-Luc2-Hygro)
Knock-down reagent: single siRNA against human genes, 0.8 pmol siRNA per well
Timing: 72 h
Detection: 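Luciferase light (ONE-Glo) measured on one replicate plate set and viability (CellTiter-Glo) on the other, scaled to a negative control siRNA, with robust z-scores and luciferase per cell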
Scale: total luciferase, z-score: higher = more reporter protein produced
Call rule: 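An siRNA counts as active if its total luciferase robust z-score exceeds 3; genes with two or more such siRNAs out of three were retested with fresh siRNAs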
Meaning of the calls: active = raised luciferase; inactive = no rise
In all, the deposit lists about 59,000 reagents; shown is a part drawn at random. In the full data, about 1,510 (2.6%) are marked active. 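Calls use total luciferase alone and ignore viability, so some active siRNAs may act by altering cell number.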 A number with no mark means an inactive call. The numbers tell different reagents against one gene apart. Not all columns of the deposit are shown.

Gene	reagent	total luciferase, z-score
PRODH	1	1.54
PRODH	2	1.66
PRODH	3	-0.386
CEP57	1	-0.187
CEP57	2	0.706
CEP57	3	-1.41
ACTC1	1	-1.23
ACTC1	2	-0.196
ACTC1	3	1.65
ZMYM2	1	-0.751
ZMYM2	2	-0.146
ZMYM2	3	-0.474
PJA1	1	-0.242
PJA1	2	0.95
PJA1	3	-0.606
ANXA8L1	1	-0.0233
ANXA8L1	2	-2.91
ANXA8L1	3	-0.662
ANXA8L1	4	-0.301
ANXA8L1	5	1.93
ANXA8L1	6	-1.18
PDK4	1	0.465
PDK4	2	1.73
PDK4	3	-0.923
E2F7	1	1.24
E2F7	2	-1.25
E2F7	3	-1.2
SCN1A	1	-0.161
SCN1A	2	0.964
SCN1A	3	1.34
BRD1	1	-1.94
BRD1	2	0.517
BRD1	3	-0.782
CARS2	1	0.805
CARS2	2	-0.196
CARS2	3	-2.01

Reformatted: entries from further up
| Gene | reagent | total luciferase, z-score |
| --- | --- | --- |
| E2F7 | 1 | 1.24 |
| E2F7 | 2 | -1.25 |
| E2F7 | 3 | -1.2 |
| SCN1A | 1 | -0.161 |
| SCN1A | 2 | 0.964 |
| SCN1A | 3 | 1.34 |
| BRD1 | 1 | -1.94 |
| BRD1 | 2 | 0.517 |
| BRD1 | 3 | -0.782 |

Additional reagents:
Gene	reagent	total luciferase, z-score
DCBLD1	1	-0.267
DCBLD1	2	2.22
DCBLD1	3	-0.0519
MPV17	1	0.221
MPV17	2	-0.864
MPV17	3	-0.167
GYPA	1	0.886
GYPA	2	0.024
GYPA	3	0.982
ZNF629	1	-0.308
ZNF629	2	-0.681
ZNF629	3	0.341
NONO	1	-1.75
NONO	2	-0.126
NONO	3	1.77
TMEM128	1	-0.0153
TMEM128	2	-0.582
TMEM128	3	-0.121
SSPN	1	1.13
SSPN	2	-1.1
SSPN	3	0.101
